In the supplement of paper PMC12282887:
± gives the standard deviation of the averaged measurements. These are raw signals, not scaled to a control.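 For antimicrobials the highest concentration approximated the MIC. Most other compounds topped out at 500 µM, and known inducer-like compounds reached up to 1 mM. Inocula for deletion strains were tenfold smaller, and any well growing below 10% of the overall median was considered non-growing.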 Where a SMILES comes first, the peptide text is derived from it. Bridges are numbered along the chain shown (N, C = ends). [ ]: non-standard residue; d: D form. The star is where a group is joined. Ileψ(thiazoline)Cys = CC[C@H](C)[C@H](N)C1=N[C@H](C(=O)*)CS1; dOrn = NCCC[C@@H](N)C(=O)O

Test system: Escherichia coli BW25113
Assay: growth (OD600 area under curve, 8 h) (OD600 x h); higher = more growth
Description: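 E. coli BW25113 reporter strains (wild type, ΔmarA, ΔsoxS, Δrob, each carrying one of 8 lux reporter plasmids) were grown in 40 µl LB in 384-well plates at 37°C, 800 rpm, with each compound at 4 two-fold concentrations, in biological duplicates. Growth is the baseline-corrected OD600 area under the curve over 8 h (0-8 h WT, 1-9 h deletion strains).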

C[C@H]1[C@H](NC(=O)/C(=N\OC(C)(C)C(=O)O)c2csc(N)n2)C(=O)N1S(=O)(=O)O [Aztreonam]
growth
Conditions	reporter plasmid: EVC	reporter plasmid: acrABp	reporter plasmid: marRABp	reporter plasmid: micFp	reporter plasmid: ompFp	reporter plasmid: robp	reporter plasmid: soxSp	reporter plasmid: tolCp
0.0054 µg/ml, genetic background: wild type	2.61 ± 0.05	2.8 ± 0.08	3.03 ± 0.31	2.83 ± 0.57	2.61 ± 0.21	2.81 ± 0.35	2.58 ± 0.095	2.79 ± 0.41
0.0054 µg/ml, genetic background: ΔmarA	2.841 ± 0.026	3.4 ± 1.3	2.77 ± 0.77	2.76 ± 0.06	2.65 ± 0.97	2.72 ± 0.75	2.31 ± 0.22	2.66 ± 0.33
0.0054 µg/ml, genetic background: Δrob	2.12 ± 0.41	3.04 ± 0.24	3.05 ± 0.51	2.78 ± 0.052	1.81 ± 0.62	2.235 ± 0.015	2.62 ± 0.17	2.56 ± 0.026
0.0054 µg/ml, genetic background: ΔsoxS	2.48 ± 0.2	2.77 ± 1.1	2.99 ± 0.77	2.27 ± 0.089	2.64 ± 0.55	2.96 ± 0.23	2.75 ± 0.62	2.56 ± 0.31
0.011 µg/ml, genetic background: wild type	2.65 ± 0.051	3.06 ± 0.42	2.96 ± 0.2	2.75 ± 0.39	2.79 ± 0.34	3 ± 0.51	2.43 ± 0.064	2.54 ± 0.46
0.011 µg/ml, genetic background: ΔmarA	3.04 ± 0.056	3.54 ± 0.99	3.37 ± 0.75	3.09 ± 0.13	2.61 ± 0.86	3.14 ± 1	2.31 ± 0.28	2.67 ± 0.39
0.011 µg/ml, genetic background: Δrob	2.19 ± 0.54	3.77 ± 0.46	3.1 ± 0.52	2.51 ± 0.22	2.14 ± 0.39	2.48 ± 0.12	2.47 ± 0.29	2.28 ± 0.22
0.011 µg/ml, genetic background: ΔsoxS	2.31 ± 0.17	2.96 ± 1.1	2.95 ± 0.59	2.04 ± 0.021	2.31 ± 0.18	2.93 ± 0.16	2.57 ± 0.71	2.36 ± 0.24
0.022 µg/ml, genetic background: wild type	2.43 ± 0.029	3 ± 0.36	2.71 ± 0.42	2.71 ± 0.38	2.64 ± 0.26	2.57 ± 0.086	2.55 ± 0.12	2.42 ± 0.41
0.022 µg/ml, genetic background: ΔmarA	2.38 ± 0.33	2.19 ± 0.33	2.72 ± 0.2	2.48 ± 0.07	2.32 ± 0.7	2.17 ± 0.25	2.22 ± 0.28	2.43 ± 0.093
0.022 µg/ml, genetic background: Δrob	1.99 ± 0.22	2.84 ± 0.23	2.75 ± 0.22	2.07 ± 0.42	1.57 ± 0.13	2.17 ± 0.55	2.32 ± 0.27	2.28 ± 0.18
0.022 µg/ml, genetic background: ΔsoxS	2.19 ± 0.38	2.6 ± 0.96	2.9 ± 0.69	1.93 ± 0.031	2.14 ± 0.068	3.11 ± 0.12	2.54 ± 1	2.43 ± 0.4
0.044 µg/ml, genetic background: wild type	0.857 ± 0.17	0.00262 ± 0.011	0.0219 ± 0.025	0.0497 ± 0.1	-0.0961 ± 0.0047	-0.0692 ± 0.012	1.13 ± 0.36	0.61 ± 0.77
0.044 µg/ml, genetic background: ΔmarA	-0.105 ± 0.29	0.0639 ± 0.15	-0.0247 ± 0.032	-0.079 ± 0.015	-0.0495 ± 0.011	-0.0822 ± 0.042	0.888 ± 0.48	-0.0775 ± 0.065
0.044 µg/ml, genetic background: Δrob	-0.264 ± 0.56	0.00596 ± 0.056	-0.0122 ± 0.069	-0.0634 ± 0.012	-0.0342 ± 0.015	-0.0754 ± 0.015	0.589 ± 0.69	0.0713 ± 0.17
0.044 µg/ml, genetic background: ΔsoxS	0.228 ± 0.29	-0.0545 ± 0.11	-0.0567 ± 0.054	-0.028 ± 0.048	-0.0348 ± 0.032	-0.044 ± 0.053	0.0324 ± 0.025	0.232 ± 0.014

CC[C@H](C)[C@H](N)C1=N[C@H](C(=O)N[C@@H](CC(C)C)C(=O)N[C@H](CCC(=O)O)C(=O)N[C@H](C(=O)N[C@H]2CCCCNC(=O)[C@H](CC(N)=O)NC(=O)[C@@H](CC(=O)O)NC(=O)[C@H](Cc3cnc[nH]3)NC(=O)[C@@H](Cc3ccccc3)NC(=O)[C@H]([C@@H](C)CC)NC(=O)[C@@H](CCCN)NC2=O)[C@@H](C)CC)CS1 [Bacitracin] ({Ileψ(thiazoline)Cys}-L[dE]IK[dOrn]I[dF]H[dD]N; lactam 4-C)
growth
Conditions	reporter plasmid: EVC	reporter plasmid: acrABp	reporter plasmid: marRABp	reporter plasmid: micFp	reporter plasmid: ompFp	reporter plasmid: robp	reporter plasmid: soxSp	reporter plasmid: tolCp
35.6 µg/ml, genetic background: wild type	3.13 ± 0.098	2.89 ± 0.11	3.08 ± 0.29	3.43 ± 0.035	2.98 ± 0.27	3.18 ± 0.075	3.32 ± 0.34	3.28 ± 0.08
35.6 µg/ml, genetic background: ΔmarA	3.68 ± 0.44	4.19 ± 0.71	3.47 ± 0.23	3.76 ± 0.49	3.51 ± 0.55	3.73 ± 0.34	3.52 ± 0.35	3.44 ± 0.1
35.6 µg/ml, genetic background: Δrob	3.08 ± 0.71	2.645 ± 0.011	3.2 ± 0.64	3.23 ± 0.38	2.75 ± 0.21	2.46 ± 0.25	3.23 ± 0.46	3.22 ± 0.4
35.6 µg/ml, genetic background: ΔsoxS	3.51 ± 0.037	3.31 ± 0.053	3.08 ± 0.82	3.13 ± 0.11	3.33 ± 0.17	2.95 ± 0.41	3.31 ± 0.052	3.51 ± 0.16
71.1 µg/ml, genetic background: wild type	2.89 ± 0.12	3.04 ± 0.27	3.02 ± 0.26	3.19 ± 0.066	2.78 ± 0.12	2.89 ± 0.084	3.19 ± 0.27	3.11 ± 0.2
71.1 µg/ml, genetic background: ΔmarA	3.45 ± 0.54	4.44 ± 1.1	3.7 ± 0.39	3.6 ± 0.52	3.54 ± 0.65	3.6 ± 0.45	3.29 ± 0.43	3.12 ± 0.18
71.1 µg/ml, genetic background: Δrob	2.77 ± 0.8	2.68 ± 0.092	3.02 ± 0.41	3.1 ± 0.31	2.55 ± 0.14	2.36 ± 0.2	2.84 ± 0.42	2.94 ± 0.23
71.1 µg/ml, genetic background: ΔsoxS	3.32 ± 0.1	3.01 ± 0.26	3.03 ± 0.65	3.02 ± 0.16	3.11 ± 0.15	2.85 ± 0.19	3.3 ± 0.17	3.29 ± 0.15
142.3 µg/ml, genetic background: wild type	2.57 ± 0.054	3.3 ± 0.18	3.14 ± 0.14	2.99 ± 0.055	3.12 ± 0.27	3.19 ± 0.085	2.79 ± 0.22	2.83 ± 0.21
142.3 µg/ml, genetic background: ΔmarA	3.19 ± 0.4	4.19 ± 0.83	3.89 ± 0.48	3.33 ± 0.5	3.73 ± 0.27	3.9 ± 0.47	3.08 ± 0.58	2.97 ± 0.25
142.3 µg/ml, genetic background: Δrob	2.77 ± 0.65	3.01 ± 0.18	3.3 ± 0.46	2.83 ± 0.3	2.54 ± 0.18	2.65 ± 0.32	2.68 ± 0.37	2.79 ± 0.42
142.3 µg/ml, genetic background: ΔsoxS	3.08 ± 0.25	3.22 ± 0.41	3.19 ± 0.71	2.726 ± 0.011	2.993 ± 0.016	3.21 ± 0.09	3.14 ± 0.15	3.14 ± 0.22
284.5 µg/ml, genetic background: wild type	2.04 ± 0.57	2.352 ± 0.016	2.05 ± 0.085	1.97 ± 0.046	0.547 ± 1.6	1.86 ± 0.11	2.02 ± 0.026	2.113 ± 0.0099
284.5 µg/ml, genetic background: ΔmarA	2.3 ± 0.031	2.81 ± 0.49	2.24 ± 0.29	2.3 ± 0.64	2.03 ± 0.71	2.83 ± 0.6	1.93 ± 0.031	2.25 ± 0.23
284.5 µg/ml, genetic background: Δrob	1.81 ± 0.68	1.83 ± 0.55	1.92 ± 0.35	1.97 ± 0.29	1.22 ± 0.16	1.01 ± 0.21	1.9 ± 0.057	2 ± 0.23
284.5 µg/ml, genetic background: ΔsoxS	2.22 ± 0.26	1.8 ± 0.32	1.73 ± 0.17	1.89 ± 0.19	1.62 ± 0.03	1.46 ± 0.21	0.298 ± 2.4	2.13 ± 0.37
